Source: patent publication US6294333, “Fluorescent intensity assay for protein or peptide binding to nucleic acids” (Ingeneus Corp.)

Target: T1, Oct-1 (Homo sapiens) (UniProt P14859)
T1 sequence (looked up, limits assumed): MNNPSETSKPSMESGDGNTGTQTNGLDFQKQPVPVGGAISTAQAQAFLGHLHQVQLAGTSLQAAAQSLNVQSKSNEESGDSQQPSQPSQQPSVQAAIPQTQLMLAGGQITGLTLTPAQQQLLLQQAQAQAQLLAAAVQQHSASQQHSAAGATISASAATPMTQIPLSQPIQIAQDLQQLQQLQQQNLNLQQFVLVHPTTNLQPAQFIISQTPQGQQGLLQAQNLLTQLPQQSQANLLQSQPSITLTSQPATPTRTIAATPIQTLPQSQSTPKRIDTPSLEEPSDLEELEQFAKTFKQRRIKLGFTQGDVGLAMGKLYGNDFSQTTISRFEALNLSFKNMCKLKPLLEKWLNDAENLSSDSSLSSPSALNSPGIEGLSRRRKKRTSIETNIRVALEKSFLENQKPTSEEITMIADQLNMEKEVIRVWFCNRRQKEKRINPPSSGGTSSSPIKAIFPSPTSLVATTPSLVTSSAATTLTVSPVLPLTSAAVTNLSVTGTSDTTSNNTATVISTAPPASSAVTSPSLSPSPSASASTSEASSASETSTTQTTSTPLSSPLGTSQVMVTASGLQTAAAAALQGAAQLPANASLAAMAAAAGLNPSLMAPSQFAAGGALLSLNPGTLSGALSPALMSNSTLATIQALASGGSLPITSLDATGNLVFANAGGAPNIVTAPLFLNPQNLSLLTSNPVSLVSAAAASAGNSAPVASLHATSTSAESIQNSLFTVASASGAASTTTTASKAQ
Assay: binding assay
Details: fluorescence quenching; intensity increased; protein in an extract; protein details: HeLa nuclear extract, Promega; label: 5'-fluorescein both strands; variant of JD49F/50F

“GAGTCGGCACCTCATGTG (double strand) [JD51F/52F]”: no binding.

Where cells or extracts were used, other partners may take part. A negative result means that nothing was seen under these conditions. Tags and fusion partners may be left off the protein sequences shown.
